This note sets out measurements from paper PMC6005158.

The assay has as its target T1, Danio rerio STING (DrSTING), Myc-tagged (zebrafish (Danio rerio)) (UniProt E7F4N7).
T1 sequence: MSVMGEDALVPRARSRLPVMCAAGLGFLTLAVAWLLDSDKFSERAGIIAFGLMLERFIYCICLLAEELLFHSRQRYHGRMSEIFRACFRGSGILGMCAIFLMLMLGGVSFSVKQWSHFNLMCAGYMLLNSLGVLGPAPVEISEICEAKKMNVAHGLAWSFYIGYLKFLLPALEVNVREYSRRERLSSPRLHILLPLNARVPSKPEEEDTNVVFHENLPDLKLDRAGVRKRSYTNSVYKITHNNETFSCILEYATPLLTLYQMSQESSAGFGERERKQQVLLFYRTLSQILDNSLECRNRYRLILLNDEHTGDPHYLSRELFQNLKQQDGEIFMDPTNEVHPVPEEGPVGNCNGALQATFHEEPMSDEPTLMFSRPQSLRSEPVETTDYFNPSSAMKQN
The assay can be described thus: co-IP; HEK293T co-transfected with Myc-DrSTING and GFP-DrSTAT6 without Flag-DrDDX41 (empty vector); lysates immunoprecipitated with anti-Myc mAb and protein A-agarose, blotted with anti-tag antibodies.

Results are given in words; binding and its absence hold for the method and conditions named. Binding seen in cells or lysates may run through a third protein. A result given as binding can be weak or reduced; the word gives no strength. Where a sequence is shown, tags or fusion partners need not be part of it.

With “Danio rerio STAT6 (DrSTAT6), GFP-tagged (zebrafish (Danio rerio))”, the binding entry was “binds weakly”.
